Experimental data as given in the supplement of paper PMC10338343.
± gives the standard deviation. This is a selection; strong and weak results do not stand in their true shares. Many of these values have a large error.

Test system: MILI (PIWIL2) piRISC loaded with Kctd7 piRNA (26 nt)
Experiment: pre-steady-state target cleavage rate (min^-1); MIWI and MILI are mouse PIWI proteins and EfPiwi is from a freshwater sponge; tags in brackets are library labels; higher = faster piRNA-guided slicing of the target
Details: guide: Kctd7 piRNA 5'p-UGUUAAUCUCUCAGAGAAGGUGACAG; auxiliary factor: 500 nM mouse GTSF1
Procedure: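 Cleave-'n-Seq: a library of target RNAs (target site embedded in constant flanks, ACAGCATTCCGCGTTAGTGATATCCG... 5' flank; DNA-blocked outside the site) at 0.1 nM was incubated with 1 nM active mouse MILI or MIWI piRISC (synthetic 5'-monophosphorylated piRNA guide) with or without 500 nM mouse GTSF1 at 33 °C for 1 min to 16 h. Uncleaved targets were sequenced and normalised to non-target controls, and the pooled three trials were fitted to a burst-and-steady-state model to give the pre-steady-state cleavage rate (min^-1; k3 is constrained to at most 1e-4). Sequence is the target site only; target names encode pairing extent (gX:gY) and contiguous / 1-mismatch / 2-mismatch / bulge geometry. Fits with R² ≤ 0 are excluded.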

Sequence | pre-steady-state target cleavage rate
UAGUGACUCACCUUCUGUGAGAGUUUAACA | 0.0308 ± 0.01
UAGUGACAGUGGAACUCUGAGAGAUUACACA | 0.000144 ± 0.043
UAGUGACAGUGGUUCUCUGAGAGAUUAAGCA | 0.000764 ± 0.0057
UAGUGACUCACCUUCUCUGAGACUAUAUGA | 0.000123 ± 0.024
UAGUGACAGUGCUUCUCUGAGCAGAUUAACA | 0.001 ± 0.0059
UAGUGACAGUGCAUCUCUGACAGAUUAACA | 0.000161 ± 0.013
UAGUGACAGUGGUUCUCUGAGAGAUCAACA | 0.000151 ± 0.015
UAGUGAGUCACCUUGUCUGAGAGAAUAACA | 0.00224 ± 0.0059
UAGUGACUCACCUUCUCUGAGUCAUUAUGA | 0.000127 ± 0.14
UAGUGACAGUGCUUCUGACAGAGAUUAACA | 0.000405 ± 0.011
UAGUGACAGUGGAUCUCUGAGAAGAUUAACA | 0.000148 ± 0.021
UAGUGACAGUGGAAGUCUGAGAGAUUUAACA | 0.000255 ± 0.0085
UAGUGAGUCACCUUCUCUGAGUCAUUUUGA | 0.002 ± 0.0071
UAGUGACAGUGCUUCUCUGAGUCAUUAAGA | 0.000183 ± 0.017
UAGUGACUCACCUUGACUGAGAGAUUUUGA | 0.000406 ± 0.035
UAGUGACUCACCUUCUACUGAGAGAUUAACA | 0.00162 ± 0.0067
UAGUGAGUCACCUUCUCUGAGAGUAUAACA | 0.144 ± 0.057
UAGUGACAGUGCUUCACUGAGAGAAUAACA | 0.0019 ± 0.0053
UAGUGACUCACCUUCUCUGAGAGUUUUACA | 0.0214 ± 0.01
UAGUGACAGUGGAUCUCUGAGAGAUUAACC [g2:g17:cont:t1C] | 0.000449 ± 0.0078
UAGUGUGUCUGGUUCUCUGAGAGAUUAUGA | 0.000339 ± 0.025
UAGUGACAGACCUUCUCUGAGAGAUAAUGA | 0.00104 ± 0.01
UAGUGACUCACCUUCUCUCAGUGAUUAACA | 0.00159 ± 0.0077

Sequence | pre-steady-state target cleavage rate
UAGUGACUCAGCUUCUCUGAGAGAUAUUGA | 0.000733 ± 0.008
UAGUGACACACCUUCUCUGUCUGAUUAACA | 0.00222 ± 0.0039
UAGUGACAGUGGAACUCUGAGUAGAUUAACA | 0.000931 ± 0.017
UAGUCUGUCACCUUCUCUAAGAGAUUAACA | 0.138 ± 0.0097
UAGUGACUCACGUUCUCUGAGUGAUUAACA | 0.000765 ± 0.013
UAGUGACAGUGGAAGAGACUGACAUUAUCA | 0.000263 ± 0.019
UAGUGACUCAGGUUCUCUGAGAGAUUAUGA | 0.00103 ± 0.0056
UAGUGACAGUGGAAGAGUGAGUGAUUUACA | 0.000274 ± 0.018
UAGUCAGUCACCUUCUCUGAGAGAUUAAGA | 0.135 ± 0.024
UAGUGACAGUGGAAGAGACACAGAAUAACA | 0.000202 ± 0.033
UAGUGACUCACGAUCUCUGAGAGAUUAUGA | 0.00153 ± 0.0039
UAGUGAGUCACCUUCUGACAGAGAUUAAGA | 0.00162 ± 0.0074
UAGUGACACUGGUUCUCUGAGAGAUUUUGA | 0.000165 ± 0.074
UAGUGACACACCUUCUCUGAGACUUAUUGA | 0.000267 ± 0.031
UAGUGACUCACCUUCUCUGAGACUUAUUGA | 0.000196 ± 0.028
UAGUGACACACCUUCUCUGAGUGAUUAUGA | 0.000452 ± 0.018
UAGUGACAGUCCUUCUCUGAGAGAUAAUCA | 0.00111 ± 0.0057
UAGUGACAGUGGAACUCUGAGACAUUUACA | 0.00137 ± 0.014
UAGUGACAGUGGUUCAUCUGAGAGAUUAACA | 0.00243 ± 0.0027
UAGUGACAGUCCUUCUCUGAGAGAUAAAGA | 0.000359 ± 0.016
UAGUGACAGUGGAAGAGACAGAGAAUAAGA | 0.000431 ± 0.017
UAGUCUGUCACCUUCUCUGAGAGAUUAAACA | 0.147 ± 0.018
UAGUGACAGUGGUUCUCUGAGCGAUUAACA | 0.000301 ± 0.028

A stretch from the list above, for reference:
Sequence | pre-steady-state target cleavage rate
UAGUGACACACCUUCUCUGUCUGAUUAACA | 0.00222 ± 0.0039
UAGUGACAGUGGAACUCUGAGUAGAUUAACA | 0.000931 ± 0.017
UAGUCUGUCACCUUCUCUAAGAGAUUAACA | 0.138 ± 0.0097
UAGUGACUCACGUUCUCUGAGUGAUUAACA | 0.000765 ± 0.013
UAGUGACAGUGGAAGAGACUGACAUUAUCA | 0.000263 ± 0.019
UAGUGACUCAGGUUCUCUGAGAGAUUAUGA | 0.00103 ± 0.0056
UAGUGACAGUGGAAGAGUGAGUGAUUUACA | 0.000274 ± 0.018
UAGUCAGUCACCUUCUCUGAGAGAUUAAGA | 0.135 ± 0.024
UAGUGACAGUGGAAGAGACACAGAAUAACA | 0.000202 ± 0.033
UAGUGACUCACGAUCUCUGAGAGAUUAUGA | 0.00153 ± 0.0039
UAGUGAGUCACCUUCUGACAGAGAUUAAGA | 0.00162 ± 0.0074
UAGUGACACUGGUUCUCUGAGAGAUUUUGA | 0.000165 ± 0.074
UAGUGACACACCUUCUCUGAGACUUAUUGA | 0.000267 ± 0.031
UAGUGACUCACCUUCUCUGAGACUUAUUGA | 0.000196 ± 0.028
UAGUGACACACCUUCUCUGAGUGAUUAUGA | 0.000452 ± 0.018
UAGUGACAGUCCUUCUCUGAGAGAUAAUCA | 0.00111 ± 0.0057
UAGUGACAGUGGAACUCUGAGACAUUUACA | 0.00137 ± 0.014
UAGUGACAGUGGUUCAUCUGAGAGAUUAACA | 0.00243 ± 0.0027
UAGUGACAGUCCUUCUCUGAGAGAUAAAGA | 0.000359 ± 0.016
UAGUGACAGUGGAAGAGACAGAGAAUAAGA | 0.000431 ± 0.017
UAGUCUGUCACCUUCUCUGAGAGAUUAAACA | 0.147 ± 0.018

More entries follow.

Sequence | pre-steady-state target cleavage rate
UAGUGACAGUGCAAGUCUGAGAGAUUAACA | 0.00155 ± 0.0045
UAGUGACAGACCUACUCUGAGAGAUUAUGA | 0.00187 ± 0.0055
UAGUGACUCACCUUCUGUGAGAGAUUUUGA | 0.00903 ± 0.0039
UAGUGACAGUCCUUCUCUAGAGAUUAACA | 0.000972 ± 0.0089
UAGUGACUCACCUUCUGUGAGAGAUAUUGA | 0.00222 ± 0.0075
UAGUGACAGUGGAACUCUGAGAGUUUAACA | 0.000198 ± 0.032
UAGUGACAGUGGUUCUGUGAGAGAUUUACA | 0.000972 ± 0.0085
UAGUGACACUGCUUCUCUGAGAGAUUUUGA | 0.000834 ± 0.006
UAGUGACAGUGGAAGAGUGAGGAGAUUAACA | < 0.0001
UAGUGACAGUCCUUCUGAGAGAGAUUAUGA | 0.00138 ± 0.0048
UAGUGACAGUCCUUCUCUGAGAGAUAUUCA | 0.000503 ± 0.013
UAGUGACAGUGCUUGUCUGAGAGAAUAACA | 0.00262 ± 0.0037
UAGUGACAGUGCUUCUCUGAGAGACUAACA | 0.00253 ± 0.0032
UAGUGACAGACCUUCUCAGAGUGAUUAACA | 0.00141 ± 0.01
UAGUGACAGUGGAAGACUGAGAGGAUUAACA | 0.000107 ± 0.017
UAGUGACACACGUUCUCUGAGAGAUUUUGA | 0.00173 ± 0.0051
UAGUGACUCACCUUCUCUGACAGAUUUUGA | 0.000576 ± 0.015
UAGUGACUCACCUUCUCAGAGUGAUUAACA | 0.00346 ± 0.0036
UAGUGACAGUGGAAGAGACUCUCAUUAACA | 0.000121 ± 0.02
UAGUGACAGUGGAAGACUGAGACAUUUACA | 0.000125 ± 0.044
UAGUGACACUCCUUCUCUGAGAGAUUUUGA | 0.00133 ± 0.0073
UAGUGACAGACCUUCUCUGAGCAGAUUAACA | 0.00167 ± 0.0071
UAGUCUGUCACCUUCUCUGAGAGUAAAACA | 0.0676 ± 0.024

Sequence | pre-steady-state target cleavage rate
UAGUGACACACCUUCUCUGAAGAUUAACA | 0.00191 ± 0.0044
UAGUGACUCUGGUUCUCUGAGAGAUUAACA | 0.000561 ± 0.016
UAGUGACACACCUUCUCUGAGUCUUUAUGA | 0.000642 ± 0.015
UAGUCUGUCACCUUCUCUGAGAGUUUUACA | 0.171 ± 0.054
UAGUGACAGUGCUUCUCUGUGAGAUAAACA | 0.00229 ± 0.0042
UAGUGUGUCACCUUCUCACUGAGAUUAUGA | 0.00177 ± 0.0083
UAGUGACAGUCCUUCUCUCUCAGAUUAAGA | 0.000308 ± 0.025
UAGUGACACACCUUCUCUGAGACAUUAACA | 0.0514 ± 0.0091
UAGUGACACACCUUCUCUGAGCAGAUUAACA | 0.00162 ± 0.0072
UAGUGACACACCUUCUCUGACUCUAAUUGA [g11:g22:cont:t1A] | 0.000334 ± 0.026
UAGUGACAGACCUUCUCAGAGAGAUUAUGA | 0.00398 ± 0.0045
UAGUGUGUCACCUUCUCUGAAGAUUAACA | 0.00314 ± 0.0045
UAGUGAGUCUCCUUCUCUGAGAGAUAUUGA | 0.00214 ± 0.0058
UAGUGACAGUGCUUGUCUGAGAGAUAAACA | 0.00332 ± 0.0044
UAGUCUGUCACGAUCUCUGAGAGAUAUUGA | 0.000613 ± 0.0073
UAGUGACAGACCUUCUCUGACUGAUUAACA | 0.000946 ± 0.0098
UAGUGACAGUGCUUCUGCUGAGAGAUUAACA | 0.000992 ± 0.0067
UAGUGACAGUGGUUCUCUGAGAGAUUAUCA | 0.0012 ± 0.0051
UAGUGACACACCUACUCUGAGACAUUAACA | 0.0243 ± 0.0072
UAGUGACAGUGGUUCUCUGACAGAUUAUCA | 0.000112 ± 0.052
UAGUGACAGACCUUGUCUGAGAGAUUUUGA | 0.000692 ± 0.014
UAGUGAGUCACCAACUCUGAGAGAUUUUGA | 0.00126 ± 0.0084
